Test results reported in publication PMC5325358.

The chains behind the UniProt entries cited, without tags or fusion partners. Where a name states a change or a piece, a line headed by the entry shows the natural chain unless it says otherwise.
UniProt Q9Y4F9: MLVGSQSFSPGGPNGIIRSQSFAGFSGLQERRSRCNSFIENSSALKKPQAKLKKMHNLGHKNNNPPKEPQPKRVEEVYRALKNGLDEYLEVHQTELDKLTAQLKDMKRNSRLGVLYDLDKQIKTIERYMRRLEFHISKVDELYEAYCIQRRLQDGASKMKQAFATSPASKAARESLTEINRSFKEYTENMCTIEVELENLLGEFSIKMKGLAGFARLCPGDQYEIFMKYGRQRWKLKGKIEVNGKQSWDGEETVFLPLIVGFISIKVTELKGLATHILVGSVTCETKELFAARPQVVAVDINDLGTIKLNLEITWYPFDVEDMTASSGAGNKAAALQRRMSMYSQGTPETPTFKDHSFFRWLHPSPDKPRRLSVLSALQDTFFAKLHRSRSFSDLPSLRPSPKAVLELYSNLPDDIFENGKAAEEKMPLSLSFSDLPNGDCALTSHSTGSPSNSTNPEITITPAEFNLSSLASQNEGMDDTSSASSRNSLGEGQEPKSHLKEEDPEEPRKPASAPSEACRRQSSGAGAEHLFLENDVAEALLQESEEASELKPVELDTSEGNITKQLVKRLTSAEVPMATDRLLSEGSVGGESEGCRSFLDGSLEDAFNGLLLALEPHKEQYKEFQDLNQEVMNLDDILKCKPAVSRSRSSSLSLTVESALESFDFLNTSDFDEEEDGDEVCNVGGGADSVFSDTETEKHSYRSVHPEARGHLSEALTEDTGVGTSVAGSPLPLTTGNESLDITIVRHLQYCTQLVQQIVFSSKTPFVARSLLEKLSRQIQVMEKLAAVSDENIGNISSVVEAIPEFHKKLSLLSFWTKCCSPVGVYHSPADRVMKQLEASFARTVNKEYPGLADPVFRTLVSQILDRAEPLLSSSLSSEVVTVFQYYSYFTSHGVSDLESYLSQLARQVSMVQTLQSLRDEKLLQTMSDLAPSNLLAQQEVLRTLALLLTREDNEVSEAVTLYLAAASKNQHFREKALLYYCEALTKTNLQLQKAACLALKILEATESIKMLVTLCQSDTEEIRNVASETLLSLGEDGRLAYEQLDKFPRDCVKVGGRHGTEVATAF
UniProt P61586: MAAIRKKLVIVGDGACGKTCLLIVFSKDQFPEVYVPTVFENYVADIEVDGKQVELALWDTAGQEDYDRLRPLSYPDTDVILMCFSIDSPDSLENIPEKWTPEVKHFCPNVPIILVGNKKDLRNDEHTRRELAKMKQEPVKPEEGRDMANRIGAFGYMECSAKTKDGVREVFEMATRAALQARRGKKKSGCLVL
UniProt Q9UBN7: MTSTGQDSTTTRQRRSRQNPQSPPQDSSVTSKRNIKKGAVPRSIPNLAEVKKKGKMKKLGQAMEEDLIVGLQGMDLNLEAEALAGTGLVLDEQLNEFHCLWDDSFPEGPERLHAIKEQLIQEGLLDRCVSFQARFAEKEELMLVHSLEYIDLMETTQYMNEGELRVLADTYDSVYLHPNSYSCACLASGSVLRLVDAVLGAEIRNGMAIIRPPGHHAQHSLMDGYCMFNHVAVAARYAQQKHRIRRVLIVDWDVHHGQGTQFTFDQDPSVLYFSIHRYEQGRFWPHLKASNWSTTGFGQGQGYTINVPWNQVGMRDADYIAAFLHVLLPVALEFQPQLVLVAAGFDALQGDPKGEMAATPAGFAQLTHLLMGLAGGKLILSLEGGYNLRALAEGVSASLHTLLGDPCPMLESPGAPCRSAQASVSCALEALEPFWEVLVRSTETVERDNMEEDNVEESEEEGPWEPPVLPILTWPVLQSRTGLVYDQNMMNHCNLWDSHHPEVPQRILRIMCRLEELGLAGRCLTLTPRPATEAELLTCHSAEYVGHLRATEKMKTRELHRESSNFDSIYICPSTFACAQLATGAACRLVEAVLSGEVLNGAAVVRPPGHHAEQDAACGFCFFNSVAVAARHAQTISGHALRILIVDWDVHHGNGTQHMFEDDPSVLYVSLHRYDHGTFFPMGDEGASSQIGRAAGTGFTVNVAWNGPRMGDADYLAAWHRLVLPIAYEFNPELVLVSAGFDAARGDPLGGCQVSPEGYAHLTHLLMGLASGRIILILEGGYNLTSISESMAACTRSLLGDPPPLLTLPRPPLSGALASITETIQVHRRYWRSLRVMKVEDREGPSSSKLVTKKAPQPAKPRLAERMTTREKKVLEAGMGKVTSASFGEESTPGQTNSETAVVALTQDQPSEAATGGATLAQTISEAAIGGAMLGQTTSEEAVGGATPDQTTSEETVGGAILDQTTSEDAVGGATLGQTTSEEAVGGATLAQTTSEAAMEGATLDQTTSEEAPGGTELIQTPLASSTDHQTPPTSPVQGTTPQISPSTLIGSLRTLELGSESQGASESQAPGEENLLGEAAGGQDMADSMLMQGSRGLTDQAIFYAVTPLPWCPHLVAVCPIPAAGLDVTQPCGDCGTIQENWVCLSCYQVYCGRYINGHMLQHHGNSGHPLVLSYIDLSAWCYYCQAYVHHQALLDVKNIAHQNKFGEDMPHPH

What was measured:
[1] = molecular target: FAM65B S(x5)A, Myc-tagged (pEF-Myc vector) (UniProt Q9Y4F9); assay: co-IP; anti-Myc (EZ myc beads) from lysates of transfected HEK293T cells, 2 h at 4°C, eluted with myc peptide; 10 mM HEPES pH 7.5, 150 mM KCl, 0.1% NP-40, with deacetylase, protease and phosphatase inhibitors; immunoblot
[2] = molecular target: FAM65B wild type, Myc-tagged (pEF-Myc vector) (UniProt Q9Y4F9); assay: as above
[3] = molecular target: GST-RhoA (UniProt P61586); assay: pull-down; beads bearing GST-RhoA (Cytoskeleton) with lysates of transfected HEK293T cells; as described in ref. 9; only the target purified

Substance	binding [1]	binding [2]	binding [3]
HDAC6-GFP (from UniProt Q9UBN7 1-1215) (enzyme)	no binding	binds	
FAM65B RL151-152AA-GFP mutant (from UniProt Q9Y4F9-2)			no binding

Results are given in words; binding and its absence hold for the method and conditions named. In cells and extracts the contact can be indirect. For part of these data: Binding can be weak; no strength is given.
